According to the supplement of paper PMC4604168 (melanoma cell lines):
Some of the results follow. Many values rest on one well or one pass, so single values are uncertain.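 Cells were imaged in 1,536-well plates, and nuclei stained with an antibody against cleaved PARP were counted against all DNA-stained nuclei to give the apoptosis fraction. Screening doses were chosen to leave most cells alive, and resting and induced cleaved-PARP levels differ strongly between cell lines.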

What was measured:
Experiment in all cases: cleaved PARP positive nuclei fraction relative to DMSO control; melanoma cells; higher = more apoptosis
Details in all cases: library dose: low library concentration; 72 h
501Mel = tested on: 501Mel
A101D = tested on: A101D
A2058 = tested on: A2058
C32 = tested on: C32
CBRC008 = tested on: CBRC008 (line from a melanoma biopsy)
CBRC014 = tested on: CBRC014 (line from a melanoma biopsy)
CBRC016 = tested on: CBRC016 (line from a melanoma biopsy)
CBRC017 = tested on: CBRC017 (line from a melanoma biopsy)
COLO792 = tested on: COLO792
COLO800 = tested on: COLO800
COLO829 = tested on: COLO829
G361 = tested on: G361
IPC-298 = tested on: IPC-298
IST-MEL1 = tested on: IST-MEL1
LB2518-MEL = tested on: LB2518-MEL
LOXIMVI = tested on: LOXIMVI

Compound	cleaved PARP positive nuclei fraction (501Mel) [%]	cleaved PARP positive nuclei fraction (A101D) [%]	cleaved PARP positive nuclei fraction (A2058) [%]	cleaved PARP positive nuclei fraction (C32) [%]	cleaved PARP positive nuclei fraction (CBRC008) [%]	cleaved PARP positive nuclei fraction (CBRC014) [%]	cleaved PARP positive nuclei fraction (CBRC016) [%]	cleaved PARP positive nuclei fraction (CBRC017) [%]	cleaved PARP positive nuclei fraction (COLO792) [%]	cleaved PARP positive nuclei fraction (COLO800) [%]	cleaved PARP positive nuclei fraction (COLO829) [%]	cleaved PARP positive nuclei fraction (G361) [%]	cleaved PARP positive nuclei fraction (IPC-298) [%]	cleaved PARP positive nuclei fraction (IST-MEL1) [%]	cleaved PARP positive nuclei fraction (LB2518-MEL) [%]	cleaved PARP positive nuclei fraction (LOXIMVI) [%]
CCCCCCCCc1ccc(CCC(N)(CO)CO)cc1 [fingolimod] + Oc1nc(-c2ccc(C(F)(F)F)cc2)nc2c1CSCC2 [XAV939] (first compound 2 µM, partner dose 2 µM)	58	10.5	87.5	41.2	142	115	17.1	110	91.3	225	251	39.9	61.1	48	38	101
NC(=O)c1ccc(N(C(N)=O)c2c(F)cccc2F)nc1-c1ccc(F)cc1F + COc1ccc2c(c1)CCC1C2CCC2(C)C(NCCCCCCN3C(=O)C=CC3=O)CCC12 [U73122] (first compound 0.4 µM, partner dose 0.4 µM)	80.8	42.3	88.8	87.2	150	94.6	85.3	106	775	78	203	102	198	125	73.8	52
CC1(C)CCC(c2ccc(Cl)cc2)=C(CN2CCN(c3ccc(C(=O)NS(=O)(=O)c4ccc(N[C@H](CCN5CCOCC5)CSc5ccccc5)c(S(=O)(=O)C(F)(F)F)c4)cc3)CC2)C1 + COc1ccc(COc2ccc(Cc3cnc(N)nc3N)cc2OC)cc1 [GW2580] (first compound 0.4 µM, partner dose 1 µM)	203	10.2	225	423	814	328	735	442	265	133	51.5	218	281	96.9	88.7	104
CCN(CC)CCNC(=O)c1c(C)[nH]c(/C=C2\C(=O)Nc3ccc(F)cc32)c1C [sunitinib] + CC(C)CCN1c2nc(Nc3cc(F)c(O)c(F)c3)ncc2N(C)C(=O)C1C [BID1870] (first compound 0.4 µM, partner dose 0.2 µM)	87.5	73.6	26.6	105	162	57.1	62.1	94.7	90.9	389	72	141	63.5	189	61.7	152
CCN(CC)CCNC(=O)c1c(C)[nH]c(/C=C2\C(=O)Nc3ccc(F)cc32)c1C [sunitinib] + COc1ccc2c(c1)CCC1C2CCC2(C)C(NCCCCCCN3C(=O)C=CC3=O)CCC12 [U73122] (first compound 0.4 µM, partner dose 0.4 µM)	88.3	90.3	72.2	85.8	72.5	83.7	112	69.3	147	126	50.1	76.2	104	29	129	173
CCCCCCCCc1ccc(CCC(N)(CO)CO)cc1 [fingolimod] + CCN(CC)CCCCNc1ncc2cc(-c3cc(OC)cc(OC)c3)c(NC(=O)NC(C)(C)C)nc2n1 [PD173074] (first compound 2 µM, partner dose 0.1 µM)	171	48.3	188	286	66.2	103	73.3	138	55	194	277	266	241	49.2	67.3	62.8
CS(=O)(=O)c1ccc(C(=O)Nc2ccc(Cl)c(-c3ccccn3)c2)c(Cl)c1 [vismodegib] + c1cc(-c2cnn3cc(-c4ccc(OCCN5CCCCC5)cc4)cnc23)ccn1 [Dorsomorphin] (first compound 1 µM, partner dose 0.4 µM)	84	44.3	41	56.3	76.4	109	73.6	89.6	58.7	59.6	148	198	95.6	91.7	66.3	109
Cn1sc(=O)n(Cc2ccccc2)c1=O + COc1ccc(COc2ccc(Cc3cnc(N)nc3N)cc2OC)cc1 [GW2580] (first compound 0.4 µM, partner dose 1 µM)	138	16.7	84.7	96.6	35.1	87.8	51	57.4	88.6	166	237	29.9	91.1	50.4	71.7	199
CCN(CC)CCNC(=O)c1c(C)[nH]c(/C=C2\C(=O)Nc3ccc(F)cc32)c1C [sunitinib] + COc1cc2ncnc(Nc3ccc(Oc4ccccc4)cc3)c2cc1OC [SrcI1] (first compound 0.4 µM, partner dose 2 µM)	74.5	54.5	200	51.5	61.6	73.5	16.8	155	86.6	104	60.8	87.8	81.4	124	58	94.1
Cn1sc(=O)n(Cc2ccccc2)c1=O + CCCCCCCCCCCC1=C(O)C(=O)C=C(O)C1=O [Embelin] (first compound 0.4 µM, partner dose 1.2 µM)	116	31	88.6	88.5	37.6	102	29.3	85.4	78.1	127	109	67.8	42.5	140	38.6	156
NC(=O)c1ccc(N(C(N)=O)c2c(F)cccc2F)nc1-c1ccc(F)cc1F + O=C1NC(=O)/C(=C/c2ccc(-c3ccc(F)cc3O)o2)S1 [AS252424] (first compound 0.4 µM, partner dose 1 µM)	182	50.2	91.1	72	75.5	121	79.3	157	146	91.5	77	121	193	163	86	144
CCCCCCCCc1ccc(CCC(N)(CO)CO)cc1 [fingolimod] + O=C(O)C(=O)Nc1sc2c(c1C(=O)O)CCNC2 [TCS401] (first compound 2 µM, partner dose 1.66667 µM)	112	16.5	32.4	64.5	120	81.2	34.7	182	94.3	62.2	151	85	134	138	205	56.6
CCCCCCCCc1ccc(CCC(N)(CO)CO)cc1 [fingolimod] + CCCCCCCCCCCC1=C(O)C(=O)C=C(O)C1=O [Embelin] (first compound 2 µM, partner dose 1.2 µM)	65.8	28.7	63	80.6	33.1	90.8	87.4	94.7	114	123	71.5	107	90.2	113	68.2	116
CN(c1ncccc1CNc1nc(Nc2ccc3c(c2)CC(=O)N3)ncc1C(F)(F)F)S(C)(=O)=O + COc1cc(N2CCC(N3CCN(C)CC3)CC2)ccc1Nc1ncc(Cl)c(Nc2ccccc2S(=O)(=O)C(C)C)n1 [NVP-TAE684] (first compound 0.08 µM, partner dose 0.08 µM)	160	27.6	90	143	133	107	28.8	90.5	197	142	60.3	113	43.1	233	60.7	70
NC1(c2ccc(-c3nc4ccn5c(=O)[nH]nc5c4cc3-c3ccccc3)cc2)CCC1 + COc1cc(N2CCC(N3CCN(C)CC3)CC2)ccc1Nc1ncc(Cl)c(Nc2ccccc2S(=O)(=O)C(C)C)n1 [NVP-TAE684] (first compound 0.4 µM, partner dose 0.08 µM)	131	27.5	79.3	133	271	174	78.3	81.1	246	49.5	186	140	93.3	54.1	77.7	100
C[C@@H](N)c1ccc(C(=O)Nc2ccnc3[nH]ccc23)cc1 + Cn1cc(/C=C2\C(=O)Nc3cccnc32)c2ccccc21 [GW441756] (first compound 0.4 µM, partner dose 0.4 µM)	83.7	12.9	44.9	112	140	104	200	106	45.3	103	103	173	137	18.2	151	38.4
C[C@]1(O)C[C@@H](c2nc(-c3ccc4ccc(-c5ccccc5)nc4c3)c3c(N)nccn32)C1 + O=C(Nc1ccccc1)c1cc([N+](=O)[O-])ccc1Cl [GW9662] (first compound 0.4 µM, partner dose 2 µM)	39.1	9.26	126	37.8	345	117	19.7	95.3	49.7	91.7	108	129	119	84.9	157	158
CCN(CC)CCNC(=O)c1c(C)[nH]c(/C=C2\C(=O)Nc3ccc(F)cc32)c1C [sunitinib] + Oc1cc(-c2nc(-c3ccccc3)[nH]c2-c2ccncc2)ccc1Cl [L779450] (first compound 0.4 µM, partner dose 0.2 µM)	101	81.5	150	65.5	38.5	70.9	20.3	89.8	71.8	162	58.2	81.4	89.1	89.1	262	93.1
Cn1sc(=O)n(Cc2ccccc2)c1=O + COc1ccc(-c2ccc3c(N4CCOCC4)nc(N4C[C@@H](C)O[C@@H](C)C4)nc3n2)cc1CO [KU0063794] (first compound 0.4 µM, partner dose 0.02 µM)	139	8.57	259	101	200	109	109	105	130	64.5	137	70.7	62.6	96.5	75.1	53.2

Rewritten in CSV form: part of the list above
Compound,cleaved PARP positive nuclei fraction (501Mel) [%],cleaved PARP positive nuclei fraction (A101D) [%],cleaved PARP positive nuclei fraction (A2058) [%],cleaved PARP positive nuclei fraction (C32) [%],cleaved PARP positive nuclei fraction (CBRC008) [%],cleaved PARP positive nuclei fraction (CBRC014) [%],cleaved PARP positive nuclei fraction (CBRC016) [%],cleaved PARP positive nuclei fraction (CBRC017) [%],cleaved PARP positive nuclei fraction (COLO792) [%],cleaved PARP positive nuclei fraction (COLO800) [%],cleaved PARP positive nuclei fraction (COLO829) [%],cleaved PARP positive nuclei fraction (G361) [%],cleaved PARP positive nuclei fraction (IPC-298) [%],cleaved PARP positive nuclei fraction (IST-MEL1) [%],cleaved PARP positive nuclei fraction (LB2518-MEL) [%],cleaved PARP positive nuclei fraction (LOXIMVI) [%]
"CCN(CC)CCNC(=O)c1c(C)[nH]c(/C=C2\C(=O)Nc3ccc(F)cc32)c1C [sunitinib] + COc1ccc2c(c1)CCC1C2CCC2(C)C(NCCCCCCN3C(=O)C=CC3=O)CCC12 [U73122] (first compound 0.4 µM, partner dose 0.4 µM)",88.3,90.3,72.2,85.8,72.5,83.7,112,69.3,147,126,50.1,76.2,104,29,129,173
"CCCCCCCCc1ccc(CCC(N)(CO)CO)cc1 [fingolimod] + CCN(CC)CCCCNc1ncc2cc(-c3cc(OC)cc(OC)c3)c(NC(=O)NC(C)(C)C)nc2n1 [PD173074] (first compound 2 µM, partner dose 0.1 µM)",171,48.3,188,286,66.2,103,73.3,138,55,194,277,266,241,49.2,67.3,62.8
